PMC6559718 (Journal of biomolecular screening, 2016)

Tests used:
[1] = test system: yeast strain expressing hANT3; experiment: microbe, parasite or virus in culture; format: cell-based; details: Saccharomyces cerevisiae, read-out: Activity hANT3 IC50
[2] = test system: yeast strain expressing hANT4; experiment: microbe, parasite or virus in culture; format: cell-based; details: Saccharomyces cerevisiae, read-out: Activity hANT4 IC50

SMILES: CCCCc1oc2ccccc2c1C(=O)c1cc(I)c(OCCN(CC)CC)c(I)c1 [Amiodarone]
- IC50 [1]: 16 ± 10 µM
- IC50 [2]: 22 ± 10 µM
